Measurements taken from paper PMC7609059.
Substitutions are numbered along the chain they refer to. These are yes or no findings as the source states them, for the method shown. For some of these results: In cells and extracts the contact can be indirect. Some entries that bind do so weakly or less than the wild type. Where a sequence is shown, tags or fusion partners need not be part of it.

Columns and labels:
[1] = biological target: T1, DNA-binding domain (BD)-fused Atg43 aa 1-184 (S. pombe) (UniProt O13709); assay: two-hybrid
T1 sequence: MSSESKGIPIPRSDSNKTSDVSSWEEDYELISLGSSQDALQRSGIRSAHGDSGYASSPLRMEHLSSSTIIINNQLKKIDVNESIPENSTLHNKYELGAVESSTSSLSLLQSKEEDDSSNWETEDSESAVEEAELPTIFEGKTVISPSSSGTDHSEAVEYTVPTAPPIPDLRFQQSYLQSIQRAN

[2] = biological target: T2, DNA-binding domain (BD)-fused AIM-mutated Atg43 aa 1-184 (S. pombe) (UniProt O13709); assay: two-hybrid
T2 sequence: T1 sequence with Y28A, I31A

[3] = biological target: T3, DNA-binding domain (BD)-fused AIM-mutated Atg43 aa 1-40 (S. pombe) (UniProt O13709); assay: two-hybrid
T3 sequence: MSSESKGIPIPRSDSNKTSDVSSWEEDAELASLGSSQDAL

[4] = biological target: T4, DNA-binding domain (BD)-fused Atg43 aa 1-40 (S. pombe) (UniProt O13709); assay: two-hybrid
T4 sequence: T3 sequence with A28Y, A31I

[5] = biological target: T5, FLAG-tagged Atg43ΔC60 (lacking the 60 C-terminal aa) (S. pombe) (UniProt O13709); assay: co-IP
T5 sequence: T1 sequence

[6] = biological target: T6, FLAG-tagged Atg43ΔN164 (the 80 C-terminal aa, aa 165-244) (S. pombe) (UniProt O13709); assay: co-IP
T6 sequence: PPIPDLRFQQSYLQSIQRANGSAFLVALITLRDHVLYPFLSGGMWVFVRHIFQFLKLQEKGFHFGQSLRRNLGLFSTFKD

FLAG-Mim1 (S. pombe) = biological target: T7, FLAG-Mim1 (S. pombe) (UniProt Q9C1W7); assay: co-IP
T7 sequence: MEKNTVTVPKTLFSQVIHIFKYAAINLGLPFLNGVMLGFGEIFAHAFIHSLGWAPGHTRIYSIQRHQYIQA

[7] = biological target: T8, FLAG-tagged Atg43 (full-length) (S. pombe) (UniProt O13709); assay: co-IP
T8 sequence: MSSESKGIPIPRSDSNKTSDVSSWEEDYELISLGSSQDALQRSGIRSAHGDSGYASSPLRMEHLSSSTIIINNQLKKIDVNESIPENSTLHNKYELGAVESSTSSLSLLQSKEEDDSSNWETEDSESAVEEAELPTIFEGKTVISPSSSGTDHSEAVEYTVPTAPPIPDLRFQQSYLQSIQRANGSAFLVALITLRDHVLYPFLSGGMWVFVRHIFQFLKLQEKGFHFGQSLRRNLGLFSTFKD

[8] = biological target: T9, GFP-fused Mim2 (S. pombe) (UniProt G2TRP0); assay: co-IP
T9 sequence: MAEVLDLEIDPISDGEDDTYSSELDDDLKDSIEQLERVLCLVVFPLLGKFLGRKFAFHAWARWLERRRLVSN

[9] = biological target: T10, GFP-fused Atg8 (S. pombe) (UniProt O94272); assay: co-IP
T10 sequence: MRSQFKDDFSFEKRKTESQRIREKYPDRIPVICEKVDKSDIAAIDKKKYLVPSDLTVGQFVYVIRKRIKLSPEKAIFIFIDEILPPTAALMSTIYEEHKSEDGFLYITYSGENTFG

[10] = biological target: T11, GFP-fused Mim1 (S. pombe) (UniProt Q9C1W7); assay: co-IP
T11 sequence: T7 sequence

B1: activation domain (AD)-fused Atg8 (protein, UniProt O94272 1-121)
chain: MRSQFKDDFSFEKRKTESQRIREKYPDRIPVICEKVDKSDIAAIDKKKYLVPSDLTVGQFVYVIRKRIKLSPEKAIFIFIDEILPPTAALMSTIYEEHKSEDGFLYITYSGENTFGTVFPF
In the case of B1, the binding [1] is reported as “binds”, the binding [2] is reported as “no binding” and the binding [3] is reported as “no binding”. For the same binder, the binding [4] was “binds”.

B2: GFP-fused Mim2 (protein, UniProt G2TRP0 1-72)
chain: T9 sequence
B2 was tested, and the binding [5] was “no binding”, the binding [6] was “binds” and the binding (FLAG-Mim1 (S. pombe)) was “binds”. For the same binder, the binding [7] was “binds”.

B3: FLAG-Mim1 (protein, UniProt Q9C1W7 1-71)
chain: T7 sequence
In the case of B3, the binding [8] is reported as “binds”.

B4: GFP-fused Mim1 (protein, UniProt Q9C1W7 1-71)
chain: T7 sequence
B4 was tested, and the binding [7] was “binds”.

B5: FLAG-tagged Atg43 (full-length) (protein, UniProt O13709 1-244)
chain: T8 sequence
B5 was tested, and the binding [9] was “binds”, the binding [10] was “binds” and the binding [8] was “binds”.
